Results are given in words; binding and its absence hold for the method and conditions named. Binding seen in cells or lysates may run through a third protein. Some results given as binding are weak or reduced against the parent protein; the word gives no strength.
Target: FLAG-tag recombinant human resistin protein (human) (UniProt Q9HD89)
Experiment: co-IP; purified FLAG-hResistin mixed with hypoxic THP-1 macrophage lysate in 30 mM HEPES, 150 mM NaCl, 2 mM beta-mercaptoethanol, pH 7.5, 30 min at 30°C; then overnight at 4°C with anti-FLAG antibody-coupled AminoLink Plus resin; eluates blotted with anti-FLAG M2-HRP or anti-BTK; only the target purified

By UniProt entry, the sequences of proteins in these tests, tags left out. Residues count along the entry.
UniProt Q9HD89, residues 19-108: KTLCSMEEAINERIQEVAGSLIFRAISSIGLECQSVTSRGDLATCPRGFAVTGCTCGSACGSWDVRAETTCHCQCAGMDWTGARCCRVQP
UniProt Q06187: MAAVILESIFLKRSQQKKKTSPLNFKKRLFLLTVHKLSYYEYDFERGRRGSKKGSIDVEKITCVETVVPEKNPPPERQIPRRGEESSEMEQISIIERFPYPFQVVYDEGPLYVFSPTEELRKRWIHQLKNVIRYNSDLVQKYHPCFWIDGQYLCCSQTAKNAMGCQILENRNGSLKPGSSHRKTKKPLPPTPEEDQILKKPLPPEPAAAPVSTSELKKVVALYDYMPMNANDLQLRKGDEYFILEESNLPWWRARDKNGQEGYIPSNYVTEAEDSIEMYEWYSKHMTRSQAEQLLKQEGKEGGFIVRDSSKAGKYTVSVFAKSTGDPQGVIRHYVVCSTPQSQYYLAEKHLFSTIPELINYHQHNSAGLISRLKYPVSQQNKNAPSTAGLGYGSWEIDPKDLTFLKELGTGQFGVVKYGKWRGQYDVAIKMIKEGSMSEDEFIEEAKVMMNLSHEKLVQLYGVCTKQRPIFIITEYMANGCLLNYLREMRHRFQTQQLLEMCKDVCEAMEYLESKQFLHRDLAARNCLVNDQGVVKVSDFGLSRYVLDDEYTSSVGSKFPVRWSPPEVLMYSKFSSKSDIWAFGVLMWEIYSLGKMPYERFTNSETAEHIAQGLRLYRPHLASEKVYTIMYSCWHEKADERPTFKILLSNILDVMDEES

- binding: binds
Substance: Bruton's tyrosine kinase (from UniProt Q06187 1-659) (enzyme)
